Source: the supplement of paper PMC10849652
The other results are listed elsewhere or left out.

The chains behind the UniProt entries cited, without tags or fusion partners. Where a name states a change or a piece, a line headed by the entry shows the natural chain unless it says otherwise.
UniProt Q96P16: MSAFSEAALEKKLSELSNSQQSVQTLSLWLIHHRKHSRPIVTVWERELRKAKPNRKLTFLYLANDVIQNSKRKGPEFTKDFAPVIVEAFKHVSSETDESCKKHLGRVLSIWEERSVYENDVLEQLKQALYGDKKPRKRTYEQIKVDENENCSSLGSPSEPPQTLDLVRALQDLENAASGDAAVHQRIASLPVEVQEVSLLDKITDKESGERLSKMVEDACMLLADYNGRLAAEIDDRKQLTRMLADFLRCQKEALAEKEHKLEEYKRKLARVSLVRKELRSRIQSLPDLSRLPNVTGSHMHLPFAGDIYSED
UniProt Q9Y265, whole entry, looked up: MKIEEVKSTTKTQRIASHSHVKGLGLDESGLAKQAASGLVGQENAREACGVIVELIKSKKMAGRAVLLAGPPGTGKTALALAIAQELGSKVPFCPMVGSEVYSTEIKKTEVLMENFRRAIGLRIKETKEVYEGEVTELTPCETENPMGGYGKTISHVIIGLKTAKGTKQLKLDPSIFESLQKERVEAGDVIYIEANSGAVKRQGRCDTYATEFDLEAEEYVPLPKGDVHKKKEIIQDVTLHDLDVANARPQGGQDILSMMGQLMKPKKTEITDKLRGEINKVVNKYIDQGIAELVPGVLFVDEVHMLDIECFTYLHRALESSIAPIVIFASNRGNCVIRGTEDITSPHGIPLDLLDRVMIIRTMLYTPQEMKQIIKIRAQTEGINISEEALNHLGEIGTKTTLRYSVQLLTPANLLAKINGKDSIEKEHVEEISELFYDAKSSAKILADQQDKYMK
UniProt P04843: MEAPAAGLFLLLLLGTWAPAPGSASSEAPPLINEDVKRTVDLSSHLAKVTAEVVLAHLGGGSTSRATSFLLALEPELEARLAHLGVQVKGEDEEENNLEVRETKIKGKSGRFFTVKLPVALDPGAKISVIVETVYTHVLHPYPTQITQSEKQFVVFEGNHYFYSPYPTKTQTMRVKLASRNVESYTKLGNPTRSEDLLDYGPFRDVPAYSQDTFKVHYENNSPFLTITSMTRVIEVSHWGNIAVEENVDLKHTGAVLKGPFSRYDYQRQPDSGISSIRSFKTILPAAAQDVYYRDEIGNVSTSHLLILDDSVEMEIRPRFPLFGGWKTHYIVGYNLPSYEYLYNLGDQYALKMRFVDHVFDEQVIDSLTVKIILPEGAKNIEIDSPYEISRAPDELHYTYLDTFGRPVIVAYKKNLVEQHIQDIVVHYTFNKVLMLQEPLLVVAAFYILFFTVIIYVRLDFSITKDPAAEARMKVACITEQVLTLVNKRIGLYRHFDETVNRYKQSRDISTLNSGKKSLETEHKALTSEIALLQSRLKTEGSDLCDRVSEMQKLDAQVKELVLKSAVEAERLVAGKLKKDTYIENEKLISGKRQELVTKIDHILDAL
UniProt Q9Y3B9: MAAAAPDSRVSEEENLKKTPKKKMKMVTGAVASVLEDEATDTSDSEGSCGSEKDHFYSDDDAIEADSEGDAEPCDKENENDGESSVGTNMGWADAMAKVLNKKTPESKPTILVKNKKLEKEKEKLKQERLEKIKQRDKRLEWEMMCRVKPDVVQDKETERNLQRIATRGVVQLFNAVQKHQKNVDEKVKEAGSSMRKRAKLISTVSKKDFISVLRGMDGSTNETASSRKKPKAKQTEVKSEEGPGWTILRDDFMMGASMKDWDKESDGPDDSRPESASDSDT
UniProt O43159: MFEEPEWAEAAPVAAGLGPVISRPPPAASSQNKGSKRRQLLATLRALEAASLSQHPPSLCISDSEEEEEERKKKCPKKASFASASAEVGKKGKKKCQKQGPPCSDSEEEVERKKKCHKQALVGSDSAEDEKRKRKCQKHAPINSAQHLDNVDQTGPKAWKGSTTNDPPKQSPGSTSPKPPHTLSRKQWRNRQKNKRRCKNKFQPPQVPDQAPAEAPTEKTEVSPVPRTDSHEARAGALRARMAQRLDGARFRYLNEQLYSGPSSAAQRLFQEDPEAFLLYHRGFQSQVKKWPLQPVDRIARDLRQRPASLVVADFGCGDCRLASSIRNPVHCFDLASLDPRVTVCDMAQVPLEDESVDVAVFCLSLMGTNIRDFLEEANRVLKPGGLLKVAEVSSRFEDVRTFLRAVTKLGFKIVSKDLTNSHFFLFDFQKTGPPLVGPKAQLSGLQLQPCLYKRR
UniProt P23297: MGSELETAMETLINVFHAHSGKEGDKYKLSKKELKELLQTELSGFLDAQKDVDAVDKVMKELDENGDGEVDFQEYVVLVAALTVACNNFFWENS
UniProt P78345: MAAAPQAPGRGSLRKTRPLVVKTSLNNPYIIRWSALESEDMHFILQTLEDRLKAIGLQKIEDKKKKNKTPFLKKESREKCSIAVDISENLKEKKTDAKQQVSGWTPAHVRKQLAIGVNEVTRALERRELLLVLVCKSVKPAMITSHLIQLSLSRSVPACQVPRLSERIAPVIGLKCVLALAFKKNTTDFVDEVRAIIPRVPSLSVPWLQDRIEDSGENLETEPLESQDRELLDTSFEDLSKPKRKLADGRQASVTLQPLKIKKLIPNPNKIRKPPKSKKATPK
UniProt Q6NW29: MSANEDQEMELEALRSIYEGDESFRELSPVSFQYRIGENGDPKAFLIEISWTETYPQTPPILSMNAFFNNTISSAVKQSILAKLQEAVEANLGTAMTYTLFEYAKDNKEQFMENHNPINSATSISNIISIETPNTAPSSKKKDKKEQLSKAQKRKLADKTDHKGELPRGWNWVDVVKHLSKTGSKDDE
UniProt P28702: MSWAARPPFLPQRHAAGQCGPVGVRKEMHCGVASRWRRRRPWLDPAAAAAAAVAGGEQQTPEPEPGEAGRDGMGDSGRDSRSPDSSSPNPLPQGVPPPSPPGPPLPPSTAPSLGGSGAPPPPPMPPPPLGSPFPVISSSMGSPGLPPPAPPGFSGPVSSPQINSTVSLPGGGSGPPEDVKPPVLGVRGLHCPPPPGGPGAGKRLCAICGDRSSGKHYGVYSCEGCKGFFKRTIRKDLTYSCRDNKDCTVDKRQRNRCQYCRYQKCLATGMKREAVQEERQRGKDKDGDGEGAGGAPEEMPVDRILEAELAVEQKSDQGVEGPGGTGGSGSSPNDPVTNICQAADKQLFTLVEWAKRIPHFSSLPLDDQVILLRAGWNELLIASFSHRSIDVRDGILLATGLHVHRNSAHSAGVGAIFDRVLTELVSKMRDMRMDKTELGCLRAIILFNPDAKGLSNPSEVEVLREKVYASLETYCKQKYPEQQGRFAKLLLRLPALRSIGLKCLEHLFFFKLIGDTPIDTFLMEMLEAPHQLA
UniProt O95197: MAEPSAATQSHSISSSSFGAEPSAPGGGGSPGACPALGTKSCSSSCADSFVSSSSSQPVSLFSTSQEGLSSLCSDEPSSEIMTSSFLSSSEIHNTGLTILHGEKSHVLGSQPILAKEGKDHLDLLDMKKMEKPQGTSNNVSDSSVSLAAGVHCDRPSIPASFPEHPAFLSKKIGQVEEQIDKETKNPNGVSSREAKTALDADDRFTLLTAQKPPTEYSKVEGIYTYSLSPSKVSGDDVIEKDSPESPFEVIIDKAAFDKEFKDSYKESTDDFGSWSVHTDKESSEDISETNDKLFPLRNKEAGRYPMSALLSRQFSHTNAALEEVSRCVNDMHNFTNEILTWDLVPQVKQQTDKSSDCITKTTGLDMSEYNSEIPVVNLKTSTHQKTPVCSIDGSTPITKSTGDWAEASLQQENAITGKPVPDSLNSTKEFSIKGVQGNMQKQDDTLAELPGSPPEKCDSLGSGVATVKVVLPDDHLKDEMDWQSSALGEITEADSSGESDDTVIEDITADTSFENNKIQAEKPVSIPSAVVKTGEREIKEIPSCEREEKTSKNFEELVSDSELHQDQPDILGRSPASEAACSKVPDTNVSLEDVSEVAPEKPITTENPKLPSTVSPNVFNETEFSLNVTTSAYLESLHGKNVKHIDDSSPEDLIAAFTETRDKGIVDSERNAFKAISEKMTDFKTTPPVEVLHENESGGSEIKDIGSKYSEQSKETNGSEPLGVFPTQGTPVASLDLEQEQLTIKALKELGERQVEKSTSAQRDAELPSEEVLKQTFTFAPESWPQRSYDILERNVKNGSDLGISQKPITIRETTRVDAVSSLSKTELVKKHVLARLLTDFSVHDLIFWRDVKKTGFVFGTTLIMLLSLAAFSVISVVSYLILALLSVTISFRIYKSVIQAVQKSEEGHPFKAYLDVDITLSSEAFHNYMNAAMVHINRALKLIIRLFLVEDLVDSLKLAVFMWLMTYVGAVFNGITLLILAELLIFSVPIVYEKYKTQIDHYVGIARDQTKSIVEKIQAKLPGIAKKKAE
UniProt Q9NQC3: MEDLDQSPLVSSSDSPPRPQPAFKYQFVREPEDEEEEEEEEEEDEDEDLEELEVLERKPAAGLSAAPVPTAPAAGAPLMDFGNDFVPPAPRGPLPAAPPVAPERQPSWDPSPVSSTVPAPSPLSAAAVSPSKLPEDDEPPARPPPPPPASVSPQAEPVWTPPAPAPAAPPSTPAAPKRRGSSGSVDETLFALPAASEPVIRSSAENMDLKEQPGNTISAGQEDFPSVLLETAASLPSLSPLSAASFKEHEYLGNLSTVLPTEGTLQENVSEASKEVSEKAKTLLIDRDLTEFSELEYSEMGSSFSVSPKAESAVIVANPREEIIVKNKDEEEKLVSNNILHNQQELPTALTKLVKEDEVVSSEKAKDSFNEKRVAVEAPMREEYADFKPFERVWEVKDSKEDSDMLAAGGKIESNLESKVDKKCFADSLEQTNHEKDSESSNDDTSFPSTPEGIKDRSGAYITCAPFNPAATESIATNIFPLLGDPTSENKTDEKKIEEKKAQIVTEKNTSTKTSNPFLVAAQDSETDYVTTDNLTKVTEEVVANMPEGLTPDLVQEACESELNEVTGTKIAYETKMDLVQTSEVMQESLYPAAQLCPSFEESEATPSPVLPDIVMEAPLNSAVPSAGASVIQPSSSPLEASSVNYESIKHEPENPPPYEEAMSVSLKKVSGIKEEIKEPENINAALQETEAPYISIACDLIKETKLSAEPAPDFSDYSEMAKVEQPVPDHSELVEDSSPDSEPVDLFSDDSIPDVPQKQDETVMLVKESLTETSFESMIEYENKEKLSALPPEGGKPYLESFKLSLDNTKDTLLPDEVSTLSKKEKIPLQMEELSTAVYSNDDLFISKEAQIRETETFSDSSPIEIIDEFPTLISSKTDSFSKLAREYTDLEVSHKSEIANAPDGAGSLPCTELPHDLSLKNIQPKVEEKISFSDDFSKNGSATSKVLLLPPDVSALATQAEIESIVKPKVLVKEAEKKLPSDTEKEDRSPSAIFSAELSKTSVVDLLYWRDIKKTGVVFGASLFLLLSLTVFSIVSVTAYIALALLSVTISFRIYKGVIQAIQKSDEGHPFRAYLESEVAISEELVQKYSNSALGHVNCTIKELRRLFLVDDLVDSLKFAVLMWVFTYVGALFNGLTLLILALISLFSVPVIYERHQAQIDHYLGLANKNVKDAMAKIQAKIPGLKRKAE
UniProt Q96T51: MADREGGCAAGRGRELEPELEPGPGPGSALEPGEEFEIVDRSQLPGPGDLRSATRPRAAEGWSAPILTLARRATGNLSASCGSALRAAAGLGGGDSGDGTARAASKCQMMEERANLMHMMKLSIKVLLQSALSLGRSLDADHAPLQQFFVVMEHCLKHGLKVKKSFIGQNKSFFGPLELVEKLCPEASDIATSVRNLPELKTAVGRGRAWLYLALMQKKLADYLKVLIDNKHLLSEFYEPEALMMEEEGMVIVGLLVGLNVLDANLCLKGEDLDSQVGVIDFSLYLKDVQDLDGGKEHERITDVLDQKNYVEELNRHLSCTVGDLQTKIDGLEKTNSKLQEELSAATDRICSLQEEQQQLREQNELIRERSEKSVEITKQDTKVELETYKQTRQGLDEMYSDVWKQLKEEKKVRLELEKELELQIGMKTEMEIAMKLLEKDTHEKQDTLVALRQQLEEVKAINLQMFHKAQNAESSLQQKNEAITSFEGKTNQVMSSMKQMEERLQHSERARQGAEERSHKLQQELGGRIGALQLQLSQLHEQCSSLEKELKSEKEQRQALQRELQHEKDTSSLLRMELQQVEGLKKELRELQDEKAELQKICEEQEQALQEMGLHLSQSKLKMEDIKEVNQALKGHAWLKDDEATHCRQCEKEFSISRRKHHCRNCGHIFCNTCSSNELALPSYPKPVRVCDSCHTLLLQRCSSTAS
UniProt Q9HB90, whole entry, looked up: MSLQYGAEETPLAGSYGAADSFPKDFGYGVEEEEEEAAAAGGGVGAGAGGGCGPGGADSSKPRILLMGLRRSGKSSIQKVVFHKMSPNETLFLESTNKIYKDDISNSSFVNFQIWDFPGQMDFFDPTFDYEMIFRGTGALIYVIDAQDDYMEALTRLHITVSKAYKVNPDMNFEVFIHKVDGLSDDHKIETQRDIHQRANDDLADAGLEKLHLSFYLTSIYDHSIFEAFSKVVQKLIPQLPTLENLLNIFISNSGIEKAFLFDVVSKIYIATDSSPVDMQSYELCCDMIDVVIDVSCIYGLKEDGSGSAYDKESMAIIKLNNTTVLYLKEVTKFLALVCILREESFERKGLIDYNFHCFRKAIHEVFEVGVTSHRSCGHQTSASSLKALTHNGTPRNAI

What was measured:
Test in all cases: log2 fold change, soluble protein after heating vs DMSO (PISA); higher = thermal stabilisation; K562 lysate, 10 uM; active = over 0.2 and 3.5 SD of the protein, either way, in both replicates (recomputed)
[1] = compound: Cc1cn(-c2cc(NC(=O)c3ccc(C)c(Nc4nccc(-c5cccnc5)n4)c3)cc(C(F)(F)F)c2)cn1 [nilotinib]
How it was run: (§1)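 Thermal stability, expressed as log-two fold change relative to solvent controls, is given from duplicates. Crude K562 extract in PBS pH 7.4 with 1 mM MgCl2, at 1 mg/mL protein, was treated with 10 μM compound for 30 min and heated in aliquots for 3 min across 48°C-58°C. After pooling, adjustment to 0.5% NP-40 at 4°C and centrifugation at 21,000xg for 90 min, supernatant protein was measured by TMTpro 16plex LC-MS/MS with channel sums equalised.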

[2] = compound: Cc1nc(Nc2n[nH]c3c2CN(C(=O)N[C@H](CN(C)C)c2ccccc2)C3(C)C)c2sccc2n1
How it was run: as §1

[3] = compound: Cc1nc(Nc2ncc(C(=O)Nc3c(C)cccc3Cl)s2)cc(N2CCN(CCO)CC2)n1 [dasatinib]
How it was run: as §1

[4] = compound: Cc1ncc(-c2ccnc(Nc3ccc(S(C)(=O)=O)cc3)n2)n1C(C)C
How it was run: as §1

[5] = compound: Cn1cc(-c2ccc3c(c2)CCN3C(=O)Cc2cccc(C(F)(F)F)c2)c2c(N)ncnc21
How it was run: as §1

[6] = compound: Cn1cc(CNCC2CCN(c3ncc(C(=O)NO)cn3)CC2)c2ccccc21 [quisinostat]
How it was run: as §1

[7] = compound: Cn1cncc1[C@@](N)(c1ccc(Cl)cc1)c1ccc2c(c1)c(-c1cccc(Cl)c1)cc(=O)n2C [tipifarnib]
How it was run: as §1

[8] = compound: NC(=O)Nc1cc(-c2cccc(F)c2)sc1C(=O)N[C@H]1CCCNC1
How it was run: as §1

[9] = compound: NC(=O)c1cnc(N[C@@H]2CCCC[C@@H]2N)nc1Nc1cccc(-n2nccn2)c1
How it was run: as §1

[10] = compound: NC1(c2ccc(-c3nc4ccn5c(=O)[nH]nc5c4cc3-c3ccccc3)cc2)CCC1
How it was run: as §1

Measured: log2 fold change

RPRD1A (UniProt Q96P16)
inactive: [1] 0.08 | [2] 0.032 | [3] -0.01 | [4] 0.023 | [5] 0.008 | [6] -0.043 | [7] -0.015 | [8] 0.018 | [9] -0.034 | [10] -0.016

RPS27A (UniProt P62979)
inactive: [1] -0.004 | [2] 0.054 | [3] -0.101 | [4] 0.051 | [5] -0.004 | [6] -0.025 | [7] -0.034 | [8] -0.005 | [9] 0.006 | [10] 0.02

RPS7 (UniProt P62081)
inactive: [1] 0.014 | [2] 0.011 | [3] 0.015 | [4] 0.028 | [5] 0.012 | [6] 0.117 | [7] -0.01 | [8] -0.01 | [9] -0.021 | [10] -0.008

RPL37A (UniProt P61513)
inactive: [1] 0.041 | [2] 0.011 | [3] 0.095 | [4] 0.067 | [5] 0.032 | [6] 0.139 | [7] 0.008 | [8] -0.028 | [9] -0.013 | [10] -0.021

RPS6KA5 (UniProt O75582)
inactive: [1] -0.037 | [2] 0.004 | [3] -0.006 | [4] -0.079 | [5] 0.065 | [6] 0.062 | [7] 0.042 | [8] 0.073 | [9] -0.086 | [10] -0.127

RUVBL1 (UniProt Q9Y265)
inactive: [1] 0 | [2] 0 | [3] 0.007 | [4] 0.001 | [5] 0.004 | [6] 0.067 | [7] -0.002 | [8] -0.003 | [9] 0.001 | [10] 0.007

RPS21 (UniProt P63220)
inactive: [1] -0.014 | [2] -0.018 | [3] -0.046 | [4] 0 | [5] -0.029 | [6] 0.003 | [7] 0.038 | [8] -0.076 | [9] -0.006 | [10] 0.027

RPN1 (UniProt P04843)
inactive: [1] 0.013 | [2] -0.028 | [3] -0.042 | [4] 0.008 | [5] -0.025 | [6] 0.002 | [7] -0.035 | [8] 0 | [9] 0.015 | [10] -0.01

RPS3A (UniProt P61247)
inactive: [1] -0.007 | [2] 0.003 | [3] 0.024 | [4] -0.029 | [5] 0.013 | [6] 0.074 | [7] 0.041 | [8] -0.004 | [9] -0.033 | [10] 0.043

RPS17 (UniProt P08708)
inactive: [1] 0.049 | [2] -0.014 | [3] -0.008 | [4] -0.003 | [5] -0.009 | [6] 0.012 | [7] 0.041 | [8] -0.002 | [9] -0.028 | [10] 0.025

RPS27L (UniProt Q71UM5)
inactive: [1] 0.04 | [2] -0.029 | [3] -0.003 | [4] 0.01 | [5] -0.006 | [6] -0.012 | [7] 0.039 | [8] -0.023 | [9] -0.043 | [10] -0.02

RPS28 (UniProt P62857)
inactive: [1] -0.039 | [2] -0.008 | [3] 0.048 | [4] -0.003 | [5] -0.031 | [6] -0.009 | [7] 0.012 | [8] -0.03 | [9] 0.022 | [10] 0.009

RRP15 (UniProt Q9Y3B9)
inactive: [1] 0.025 | [2] -0.024 | [3] 0.006 | [4] -0.015 | [5] 0.023 | [6] -0.054 | [7] -0.004 | [8] -0.018 | [9] -0.034 | [10] -0.022

RRP8 (UniProt O43159)
inactive: [1] 0.054 | [2] -0.065 | [3] -0.015 | [4] -0.019 | [5] -0.038 | [6] -0.141 | [7] -0.001 | [8] 0.045 | [9] 0.02 | [10] 0.019

RSBN1L (UniProt Q6PCB5)
inactive: [1] -0.002 | [2] 0.03 | [3] 0.021 | [4] 0.023 | [5] -0.003 | [6] -0.035 | [7] 0 | [8] -0.005 | [9] 0.001 | [10] -0.011

S100A1 (UniProt P23297)
inactive: [1] 0.129 | [2] -0.068 | [3] 0.001 | [4] 0.001 | [5] 0.048 | [6] 0.019 | [7] -0.006 | [8] 0.109 | [9] -0.01 | [10] -0.045

RPP38 (UniProt P78345)
inactive: [1] -0.017 | [2] 0.023 | [3] 0.012 | [4] -0.033 | [5] -0.012 | [6] -0.008 | [7] 0.032 | [8] -0.018 | [9] -0.002 | [10] 0.013

RWDD4 (UniProt Q6NW29)
inactive: [1] -0.002 | [2] -0.019 | [3] 0.013 | [4] 0.051 | [5] 0.05 | [6] -0.013 | [7] -0.012 | [8] 0.006 | [9] -0.002 | [10] -0.052

RTF1 (UniProt Q92541)
inactive: [1] -0.062 | [2] 0.038 | [3] -0.005 | [4] -0.018 | [5] 0.029 | [6] -0.013 | [7] -0.001 | [8] -0.013 | [9] 0.014 | [10] 0.03

RXRB isoform 3 (UniProt P28702)
inactive: [1] 0.01 | [2] -0.038 | [3] -0.018 | [4] 0.001 | [5] 0.095 | [6] -0.038 | [7] -0.052 | [8] 0.032 | [9] -0.031 | [10] -0.199

Retrieved one by one from the entries so far (2):
RXRB isoform 3 (UniProt P28702)
inactive: [1] 0.01 | [2] -0.038 | [3] -0.018 | [4] 0.001 | [5] 0.095 | [6] -0.038 | [7] -0.052 | [8] 0.032 | [9] -0.031 | [10] -0.199

RTF1 (UniProt Q92541)
inactive: [1] -0.062 | [2] 0.038 | [3] -0.005 | [4] -0.018 | [5] 0.029 | [6] -0.013 | [7] -0.001 | [8] -0.013 | [9] 0.014 | [10] 0.03

Next part.

RPS26P11 (UniProt Q5JNZ5)
inactive: [1] 0.026 | [2] 0.027 | [3] -0.017 | [4] 0.044 | [5] 0.02 | [6] -0.151 | [7] 0.004 | [8] -0.036 | [9] 0 | [10] -0.004

RTN3 (UniProt O95197)
inactive: [1] 0.033 | [2] -0.012 | [3] -0.017 | [4] -0.001 | [5] -0.007 | [6] 0.014 | [7] -0.026 | [8] 0.033 | [9] -0.007 | [10] 0.007

RTN4 (UniProt Q9NQC3)
inactive: [1] 0.028 | [2] -0.034 | [3] -0.025 | [4] -0.013 | [5] -0.011 | [6] -0.117 | [7] -0.035 | [8] 0.001 | [9] -0.028 | [10] 0.013

RPS19 (UniProt P39019)
inactive: [1] 0 | [2] -0.028 | [3] 0.001 | [4] -0.036 | [5] -0.027 | [6] 0.026 | [7] 0.013 | [8] -0.009 | [9] -0.016 | [10] 0.027

RUFY1 (UniProt Q96T51)
inactive: [1] -0.017 | [2] 0.018 | [3] -0.003 | [4] -0.01 | [5] 0.022 | [6] -0.018 | [7] -0.036 | [8] 0.013 | [9] 0.028 | [10] -0.009

RRAGB (UniProt Q5VZM2)
inactive: [1] -0.018 | [2] 0.025 | [3] 0.015 | [4] 0 | [5] 0.016 | [6] 0.001 | [7] 0.025 | [8] -0.011 | [9] -0.025 | [10] 0.021

RRAGC (UniProt Q9HB90)
inactive: [1] -0.023 | [2] 0.025 | [3] 0.032 | [4] -0.004 | [5] -0.003 | [6] -0.118 | [7] -0.013 | [8] 0 | [9] 0.001 | [10] -0.031

RWDD2B (UniProt P57060)
inactive: [1] 0.066 | [2] -0.026 | [3] 0.05 | [4] -0.054 | [5] -0.02 | [6] 0.163 | [7] -0.264 | [8] 0.017 | [9] 0.042 | [10] 0.068

RPLP0P6 (UniProt Q8NHW5)
inactive: [1] 0.01 | [2] -0.027 | [3] 0.018 | [4] 0.001 | [5] 0.026 | [6] -0.049 | [7] -0.02 | [8] 0.002 | [9] 0.005 | [10] -0.016

RPS26 (UniProt P62854)
inactive: [1] 0.018 | [2] -0.019 | [3] 0.059 | [4] -0.025 | [5] -0.11 | [6] -0.022 | [7] -0.061 | [8] 0.077 | [9] -0.01 | [10] 0.026
